Measured values from EP0850950A1, “PEPTIDE DERIVATIVES” (DAIICHI PHARMACEUTICAL CO., LTD., priority 1995, dated 1998).
At least one peptide structure holds a part that was inferred or is arguable (an end, a ring closure or a residue).

System: Mice
Assay: analgesic activity by pressure stimulation method (tail base)
Type: in vivo
Conditions: percent of maximum possible effect, maximum stimulating pressure 100 mmHg; for MPE(%) 1 mg/kg s.c. (%): 1 mg/kg subcutaneous administration (skin in the backs); for MPE(%) 10 mg/kg p.o.(%): 10 mg/kg oral administration
Experimental: The analgesic activities of the peptide derivatives of the present invention were evaluated by pressure stimulation method. Mice were subjected to pressure stimulation at the bases of their tails at a rate of 10 mmHg/second. […] For the experiments, mice that were preliminarily determined to respond to a pressure of 40-50 mmHg were used. The maximum stimulating pressure was 100 mmHg. Analgesic activity was calculated as percent of maximum possible effect (% of MPE) according to the following equation: % of MPE =(Pt - Po)/(Pc - Po)× 100 [formula] wherein Po is the pain reaction threshold before the administration of a drug; Pt is the pain reaction threshold "t" minutes after the administration of the drug; and Pc is the maximum stimulating pressure. The results of analgesic activity obtained from subcutaneous administration (skin in the backs) and oral administration are shown in Table 1.

| Compound | MPE(%) 1 mg/kg s.c. (%) | MPE(%) 10 mg/kg p.o.(%) |
| --- | --- | --- |
| CNC(=N)NCCC[C@@H](NC(=O)[C@H](Cc1ccc(O)cc1)NC(=N)N)C(=O)N[C@@H](Cc1ccccc1)C(=O)N(C)CCC(=O)O [Example 16, H2NC(NH)-Tyr-(R)-MGPE-Phe-MeβAla-OH·diacetate] | 94.45 | 66.3 |
| CC(=N)N[C@@H](Cc1ccc(O)cc1)C(=O)N[C@H](CCCNC(N)=O)C(=O)N[C@@H](Cc1ccccc1)C(=O)N(C)CCC(=O)O [Example 35, H3C-C(NH)-Tyr-D-Cit-Phe-MeβAla-OH] | 98.8 | 82.06 |
| CN(CCC(=O)O)C(=O)[C@H](Cc1ccccc1)NC(=O)[C@@H](CNC(=N)N)NC(=O)[C@H](Cc1ccc(O)cc1)NC(=N)N [Example 12, H2NC(NH)-Tyr-(R)-AGPR-Phe-MeβAla-OH·diacetate] | 58.92 | 46.82 |
| CN(CCC(=O)O)C(=O)[C@H](Cc1ccccc1)NC(=O)[C@@H](CCN)NC(=O)[C@H](Cc1ccc(O)cc1)NC(=N)N [Example 9, H2NC(NH)-Tyr-(R)-DABA-Phe-MeβAla-OH·diacetate] | 22.82 | 9.85 |
| CN(CCC(=O)O)C(=O)[C@H](Cc1ccccc1)NC(=O)[C@@H](CCCCN)NC(=O)[C@H](Cc1ccc(O)cc1)NC(=N)N [Example 7, H2NC(NH)-Tyr-D-Lys-Phe-MeβAla-OH·diacetate] | 43.29 | 21.34 |
